Reference: publication PMC10589240
These are yes or no findings as the source states them, for the method shown. In cells and extracts the contact can be indirect. Some binding calls cover weakened binding; strength is not graded here.

Molecular target: T1, SMAD4, endogenous (human (endogenous in HCT116, HEK293T and HepG2)), Q13485
T1 chain: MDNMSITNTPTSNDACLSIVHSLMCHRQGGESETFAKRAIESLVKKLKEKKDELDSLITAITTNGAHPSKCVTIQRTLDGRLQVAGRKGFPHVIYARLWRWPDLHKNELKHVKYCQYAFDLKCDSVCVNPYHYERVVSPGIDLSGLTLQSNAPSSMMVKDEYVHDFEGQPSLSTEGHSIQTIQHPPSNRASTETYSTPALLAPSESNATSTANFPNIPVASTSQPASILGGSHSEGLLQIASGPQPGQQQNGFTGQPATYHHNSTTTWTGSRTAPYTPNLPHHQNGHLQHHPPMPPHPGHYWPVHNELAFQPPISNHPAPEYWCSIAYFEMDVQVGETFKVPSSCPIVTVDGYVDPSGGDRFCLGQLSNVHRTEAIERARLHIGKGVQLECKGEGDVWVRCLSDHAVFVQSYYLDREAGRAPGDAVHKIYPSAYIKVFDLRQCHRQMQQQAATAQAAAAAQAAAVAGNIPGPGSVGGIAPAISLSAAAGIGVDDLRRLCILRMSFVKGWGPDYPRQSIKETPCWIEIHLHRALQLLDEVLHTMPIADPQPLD
Test: co-IP; IP of the SMAD4/R-SMAD complex from HepG2 cells stably expressing shNT or shTRIP12, treated with TGFβ; Western blot
Conditions: remark: other sources report otherwise

B1: SMAD2, endogenous, Q15796 1-467 (protein)
chain: MSSILPFTPPVVKRLLGWKKSAGGSGGAGGGEQNGQEEKWCEKAVKSLVKKLKKTGRLDELEKAITTQNCNTKCVTIPSTCSEIWGLSTPNTIDQWDTTGLYSFSEQTRSLDGRLQVSHRKGLPHVIYCRLWRWPDLHSHHELKAIENCEYAFNLKKDEVCVNPYHYQRVETPVLPPVLVPRHTEILTELPPLDDYTHSIPENTNFPAGIEPQSNYIPETPPPGYISEDGETSDQQLNQSMDTGSPAELSPTTLSPVNHSLDLQPVTYSEPAFWCSIAYYELNQRVGETFHASQPSLTVDGFTDPSNSERFCLGLLSNVNRNATVEMTRRHIGRGVRLYYIGGEVFAECLSDSAIFVQSPNCNQRYGWHPATVCKIPPGCNLKIFNNQEFAALLAQSVNQGFEAVYQLTRMCTIRMSFVKGWGAEYRRQTVTSTPCWIELHLNGPLQWLDKVLTQMGSPSVRCSSMS
  binding: binds

B2: SMAD3, endogenous, P84022 1-425 (protein)
chain: MSSILPFTPPIVKRLLGWKKGEQNGQEEKWCEKAVKSLVKKLKKTGQLDELEKAITTQNVNTKCITIPRSLDGRLQVSHRKGLPHVIYCRLWRWPDLHSHHELRAMELCEFAFNMKKDEVCVNPYHYQRVETPVLPPVLVPRHTEIPAEFPPLDDYSHSIPENTNFPAGIEPQSNIPETPPPGYLSEDGETSDHQMNHSMDAGSPNLSPNPMSPAHNNLDLQPVTYCEPAFWCSISYYELNQRVGETFHASQPSMTVDGFTDPSNSERFCLGLLSNVNRNAAVELTRRHIGRGVRLYYIGGEVFAECLSDSAIFVQSPNCNQRYGWHPATVCKIPPGCNLKIFNNQEFAALLAQSVNQGFEAVYQLTRMCTIRMSFVKGWGAEYRRQTVTSTPCWIELHLNGPLQWLDKVLTQMGSPSIRCSSVS
  binding: binds
